Reference: paper PMC5578684
No constants are given. Whether binding was seen depends on the method and setting. In cells and extracts the contact can be indirect. Some entries that bind do so weakly or less than the wild type.

By UniProt entry, the sequences of proteins in these tests, tags left out.
UniProt Q9JKD9: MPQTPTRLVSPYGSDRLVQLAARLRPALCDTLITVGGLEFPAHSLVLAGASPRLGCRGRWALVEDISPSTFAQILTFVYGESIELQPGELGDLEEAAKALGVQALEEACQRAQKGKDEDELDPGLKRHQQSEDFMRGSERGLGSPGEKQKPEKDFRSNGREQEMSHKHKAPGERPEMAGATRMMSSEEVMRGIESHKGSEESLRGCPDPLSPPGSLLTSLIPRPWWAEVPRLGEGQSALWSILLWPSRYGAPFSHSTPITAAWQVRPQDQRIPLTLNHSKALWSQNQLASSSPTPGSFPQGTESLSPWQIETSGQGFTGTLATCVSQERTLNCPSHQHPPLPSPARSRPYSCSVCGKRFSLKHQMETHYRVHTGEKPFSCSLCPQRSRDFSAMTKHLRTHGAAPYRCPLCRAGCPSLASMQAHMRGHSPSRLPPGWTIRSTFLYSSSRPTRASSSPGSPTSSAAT
UniProt Q60636: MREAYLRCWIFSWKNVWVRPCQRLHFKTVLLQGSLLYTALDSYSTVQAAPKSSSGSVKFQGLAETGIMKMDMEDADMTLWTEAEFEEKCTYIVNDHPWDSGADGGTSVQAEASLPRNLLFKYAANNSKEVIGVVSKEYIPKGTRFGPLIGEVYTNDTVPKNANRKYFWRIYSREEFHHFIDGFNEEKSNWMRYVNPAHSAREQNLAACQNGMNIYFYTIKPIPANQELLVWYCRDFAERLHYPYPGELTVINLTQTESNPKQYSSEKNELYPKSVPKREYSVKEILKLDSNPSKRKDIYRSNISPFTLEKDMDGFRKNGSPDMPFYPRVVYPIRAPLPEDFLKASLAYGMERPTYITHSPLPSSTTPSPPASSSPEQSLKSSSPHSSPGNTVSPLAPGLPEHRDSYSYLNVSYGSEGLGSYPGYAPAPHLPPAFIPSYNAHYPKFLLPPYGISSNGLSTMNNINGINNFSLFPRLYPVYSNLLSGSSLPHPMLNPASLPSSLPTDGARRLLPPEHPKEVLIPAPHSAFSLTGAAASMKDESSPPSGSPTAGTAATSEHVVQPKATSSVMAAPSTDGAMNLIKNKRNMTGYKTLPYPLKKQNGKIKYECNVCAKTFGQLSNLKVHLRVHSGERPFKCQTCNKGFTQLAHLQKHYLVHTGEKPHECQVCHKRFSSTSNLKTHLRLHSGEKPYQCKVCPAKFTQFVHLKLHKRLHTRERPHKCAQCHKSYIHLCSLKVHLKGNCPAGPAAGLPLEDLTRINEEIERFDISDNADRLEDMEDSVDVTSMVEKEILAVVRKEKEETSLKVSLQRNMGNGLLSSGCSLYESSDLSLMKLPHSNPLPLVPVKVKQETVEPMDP
UniProt P70288: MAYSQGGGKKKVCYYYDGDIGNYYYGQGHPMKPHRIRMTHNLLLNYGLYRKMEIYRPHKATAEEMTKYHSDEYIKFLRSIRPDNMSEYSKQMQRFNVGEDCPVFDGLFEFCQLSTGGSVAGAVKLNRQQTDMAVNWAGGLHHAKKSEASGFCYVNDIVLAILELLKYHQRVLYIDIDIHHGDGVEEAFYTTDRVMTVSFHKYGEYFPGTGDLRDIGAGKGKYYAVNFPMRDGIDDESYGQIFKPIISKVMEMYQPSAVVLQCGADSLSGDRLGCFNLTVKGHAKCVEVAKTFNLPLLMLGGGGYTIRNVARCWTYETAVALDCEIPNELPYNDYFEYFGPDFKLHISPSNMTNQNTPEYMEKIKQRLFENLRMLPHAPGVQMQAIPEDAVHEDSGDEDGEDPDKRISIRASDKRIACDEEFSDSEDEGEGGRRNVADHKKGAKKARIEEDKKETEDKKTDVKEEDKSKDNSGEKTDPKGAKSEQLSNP

Experiments:
[1] = target: ZBTB32 (mouse (endogenous in CD8+ T cells)) (UniProt Q9JKD9); assay: co-IP; WT mouse CD8+ T cells stimulated with αCD3/CD28 for 2 days with or without IL-2, IL-4 and IL-12; immunoprecipitation with αZBTB32 or an IgG control antibody, immunoblotting with αBlimp-1
[2] = target: ZBTB32 (mouse (endogenous in CD8+ T cells)) (UniProt Q9JKD9); assay: proximity ligation; Duolink II proximity ligation assay on fixed, permeabilised WT mouse CD8+ T cells stimulated with αCD3 and αCD28 for 2 days with or without IL-2, IL-4 and IL-12; antibody pairs αBlimp-1 + αZBTB32 or αBlimp-1 + αHDAC2; mouse IgG + rabbit IgG as control; confocal microscopy
[3] = target: Blimp-1 (mouse (endogenous in CD8+ T cells)) (UniProt Q60636); assay: as above

Substance | binding [1] | binding [2] | binding [3]
Blimp-1 (from UniProt Q60636 1-856) | binds | binds | –
HDAC2 (from UniProt P70288 1-488) | – | – | binds
